Values from PubChem BioAssay AID743121 (NCATS, 2013).

- Assay: 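Knock-downs that sensitise breast cancer cells to camptothecin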 (primary screen)
- System: MDA-MB-231 cells, a human breast cancer line
- Reagents: single siRNA against human genes, 20 nM siRNA (0.8 pmol per well)
- Timing: 120 h (drug added 48 h after transfection, read 72 h later)
- Challenge: camptothecin 20 nM (about EC30) for 72 h; vehicle 0.1% DMSO in parallel plates
- Measured: 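Cell viability by ATP luminescence (CellTiter-Glo) as % of non-targeting siRNA wells, and the log2 ratio of viability without drug over viability with camptothecin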
- Direction: log2 vehicle/camptothecin viability: higher = stronger sensitisation to camptothecin
- Hit rule: 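Active genes have an RSA gene-level p-value below 0.001, computed from the ratios of their separate siRNAs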
Here is an unselected part of about 26,000 reagents tested. 167 of them (0.63%) were called active. 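Calls are per gene from RSA p-values that are not deposited; an individual active-marked siRNA can sensitise only weakly.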 Entries without a mark were called inactive. The numbers tell different reagents against one gene apart. Not all columns of the deposit are shown.

With knock-down of XPR1 (GeneID 9213) #1, the screen gave log2 vehicle/camptothecin viability -0.141.
For XPR1 (GeneID 9213) #2, the entry reads log2 vehicle/camptothecin viability 0.0709.
Against XPR1 (GeneID 9213) #3 the deposit lists log2 vehicle/camptothecin viability 0.156.
After knock-down of XPR1 (GeneID 9213) #4, the screen gave log2 vehicle/camptothecin viability -0.562.
After knock-down of STAT2 (GeneID 6773) #1, the screen gave log2 vehicle/camptothecin viability -0.057.
For STAT2 (GeneID 6773) #2, the values are log2 vehicle/camptothecin viability 0.092.
Against STAT2 (GeneID 6773) #3, the values are log2 vehicle/camptothecin viability -0.232.
Against ADH5 (GeneID 128) #1, the entry reads log2 vehicle/camptothecin viability 0.123.
ADH5 (GeneID 128) #2 scored log2 vehicle/camptothecin viability -0.00121.
With knock-down of ADH5 (GeneID 128) #3, the screen gave log2 vehicle/camptothecin viability -0.00574.
GALT (GeneID 2592) #1 gave log2 vehicle/camptothecin viability 0.102.
With knock-down of GALT (GeneID 2592) #2, the screen gave log2 vehicle/camptothecin viability -0.328.
Silencing of GALT (GeneID 2592) #3 gave: log2 vehicle/camptothecin viability -0.51.
Against GALT (GeneID 2592) #4, the entry reads log2 vehicle/camptothecin viability -0.27.

2 entries from above, set out differently:
gene	reagent no.	log2 vehicle/camptothecin viability
GALT (GeneID 2592)	1	0.102
GALT (GeneID 2592)	2	-0.328
